One sequence from patent US12428663B2, “Identification of DNA polymerase theta inactivation mechanism” (The Johns Hopkins University, priority 2018, dated 2025) can be followed below.

What all share (test): activity assay
Series [1] deals with T1, DNA polymerase theta catalytic core (98 kDa fragment) (Homo sapiens) (UniProt O75417).
T1 sequence (looked up): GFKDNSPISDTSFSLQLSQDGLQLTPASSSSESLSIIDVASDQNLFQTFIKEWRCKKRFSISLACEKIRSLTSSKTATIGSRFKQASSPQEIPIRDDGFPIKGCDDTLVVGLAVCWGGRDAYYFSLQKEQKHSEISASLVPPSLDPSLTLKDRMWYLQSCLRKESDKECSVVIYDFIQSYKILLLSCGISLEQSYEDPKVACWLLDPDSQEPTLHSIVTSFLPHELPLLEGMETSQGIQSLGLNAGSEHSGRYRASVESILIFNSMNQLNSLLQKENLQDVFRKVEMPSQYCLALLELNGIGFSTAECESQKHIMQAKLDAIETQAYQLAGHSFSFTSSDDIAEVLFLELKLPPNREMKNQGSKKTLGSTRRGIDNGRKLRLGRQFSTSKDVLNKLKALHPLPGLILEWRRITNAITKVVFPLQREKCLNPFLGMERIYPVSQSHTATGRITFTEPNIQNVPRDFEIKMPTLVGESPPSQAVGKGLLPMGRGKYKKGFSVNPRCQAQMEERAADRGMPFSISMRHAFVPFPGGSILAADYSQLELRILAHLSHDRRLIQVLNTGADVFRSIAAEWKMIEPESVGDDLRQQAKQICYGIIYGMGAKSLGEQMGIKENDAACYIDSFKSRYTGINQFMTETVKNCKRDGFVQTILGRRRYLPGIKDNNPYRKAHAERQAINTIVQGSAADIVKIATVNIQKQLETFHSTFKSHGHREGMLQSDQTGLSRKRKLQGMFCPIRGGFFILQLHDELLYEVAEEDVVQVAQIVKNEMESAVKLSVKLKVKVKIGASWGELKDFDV
The following applies: kcat/Km dA incorporation, Mg2+, 25 C; Km dATP 5 uM; wt value attributed to ref 28; purified recombinant protein; label: 5'-32P primer.

Series [2] has as its target T2, DNA polymerase theta catalytic core K2383R (Homo sapiens) (UniProt O75417).
T2 sequence (looked up): T1 sequence (looked up) with K592R
The following applies: kcat/Km dA incorporation, Mg2+, 25 C; Km dATP 311 uM; purified recombinant protein; label: 5'-32P primer.

For series [3], the target named is T3, DNA polymerase theta catalytic core K2383A (Homo sapiens) (UniProt O75417).
T3 sequence (looked up): T1 sequence (looked up) with K592A
The following applies: kcat/Km dA incorporation, Mg2+, 25 C; Km dATP 1094 uM; purified recombinant protein; label: 5'-32P primer.

Numbering of substitutions follows the chain as printed. For at least one entry, the source does not settle the construct or the ends of the probe. Protein sequences can lack the tags named with them.

As to “AGCTGCAGGTCCTA / AGGCCTCACATGCATTTAGGACCTGCAGCT [primer-template 5]”, the activity on this sequence turned out to be 13.6 µM/min in series [1], 0.0043 µM/min in series [2] and 0.00048 µM/min in series [3].
